The supplement of paper PMC3334620
Over roughly 33,000 sequences, “E-score (-0.5 to 0.5)” has its median near -8e-05; the highest 2% begin near 0.23. Some of the results follow.

target: T1, Nrg2 (UniProt P38082); experiment: PBM E-score (8-mer binding enrichment) (E-score (-0.5 to 0.5)); higher = stronger / more preferred TF binding; details: protein concentration: 100 nM; construct: GST-full length
T1 sequence: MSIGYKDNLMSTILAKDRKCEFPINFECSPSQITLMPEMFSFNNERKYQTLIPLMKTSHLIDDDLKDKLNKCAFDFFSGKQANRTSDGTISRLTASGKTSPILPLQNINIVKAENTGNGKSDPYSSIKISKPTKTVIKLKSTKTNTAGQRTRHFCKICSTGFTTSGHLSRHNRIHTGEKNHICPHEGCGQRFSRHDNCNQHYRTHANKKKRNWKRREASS
How it was run: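 Full-length yeast transcription factors or their DNA-binding domains, GST-tagged and expressed with PURExpress, were applied at about 100-200 nM to universal all-10-mer Agilent arrays. These arrays had been made double-stranded by primer extension on fresh or once-stripped slides. Detection used fluorescent anti-GST, normalisation used masliner, and E-scores for ungapped eight-base words pooled with reverse complements came from the Universal PBM Analysis Suite.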

Sequence	PBM E-score
CTTCAGGA	-0.142
ACACTTCA	0.103
CCAGCATA	-0.0394
ATCGGTCC	-0.0258
CCTGATAG	-0.153
GTCTCGGA	0.141
AGGCTTGC	-0.173
AGAGCTCG	-0.0912
TATGCACA	0.172
CGCATATA	0.0344
CCCCCCTA	-0.361
GGCGCGTA	-0.0598
GATATTCC	0.0921
TCCTAGGA	-0.0933
ACTTTACC	-0.03
TGGGATAA	-0.066
GAGTCGAA	0.142
ATGATTCC	0.094
GTTCTATA	0.137
AGATCAGG	-0.0654
CTTGACCC	-0.0766
AGCGTCAC	-0.0819
CTTCATGC	0.0226
AATGACAT	0.126
CATTGAAC	0.0343

Sequence	PBM E-score
ACCTCAAG	0.0492
TAAAGTAA	-0.0473
AAGAGCAA	-0.115
ACATCGGT	-0.187
GTGCGCAC	0.172
CGCTAAAA	0.0304
CCCATAGA	0.0165
ACCGCCAG	-0.0959
AAGTGACG	0.0876
GAAAGTAA	-0.0444
TCGTGACA	-0.19
CCCCCGGG	-0.304
AGCACGGG	-0.00766
ACGTGCCG	-0.0425
CAATAGAG	0.0322
CATACCTA	-0.0293
AGAAGGTC	0.0754
GGAGCAGA	-0.0316
AGAAGTAT	0.124
CGCGTAGA	0.22
ACCGAAGG	-0.0673
GCCGAGGA	0.117
GAGGTGGA	-0.18
TACTAAGA	0.123
CGAGTCCG	-0.0327

Fetched one by one from above:
Sequence	PBM E-score
CTTCATGC	0.0226
TAAAGTAA	-0.0473
GTCTCGGA	0.141
AGGCTTGC	-0.173

(further entries)

Sequence	PBM E-score
AAGACTGG	-0.0909
CGACAGAG	0.0109
TGGAGCCA	-0.23
CAGGGGTC	0.302
CCTCGTCG	0.0198
AGATAGGC	-0.0082
ACTGCAGA	-0.0354
GGGTCCAC	0.301
AACTCGGC	0.245
CTAGTTAA	0.0857
CTGCGGAC	-0.114
ACCACAGC	-0.0543
CTGGAAAA	0.0356
CTACCTAC	0.0419
CACAGGTA	0.0699
GGGGTCAC	-0.0806
CAAGCGGG	-0.108
AACTACTT	0.0815
CAACGAAC	0.126
AGAGGAGA	-0.269
AGAAATTA	0.228
CTGCCGGC	-0.0362
GTGGAACA	-0.0101
GAAACAGA	0.04
TACCCACA	-0.0533

Sequence	PBM E-score
TCTCCCCA	-0.0411
CAATAACC	0.0677
TAAGGGTA	0.096
GGCCGGTA	-0.0376
ATGCCGGA	-0.138
CCTTATAG	0.00764
ACCCTTCA	0.0934
CCATATCG	0.192
ACTAAGCC	-0.0209
TAGATTGA	0.0226
ATGCAATC	0.0876
AAGGCGCG	-0.13
ATTCCAAT	-0.0363
AAACCCGC	0.167
CACACGAA	0.0988
CTTCTTTA	0.0349
CGTATGAA	0.158
ATGGACTA	0.0039
ACAGACTA	-0.1
ACCAGAAG	-0.134
ATACCTTC	-0.0248
TGGTTACA	-0.168
ACCTTCAG	-0.0553
GTAAATTA	-0.132
CAGGCCGC	-0.19

Some of the entries so far, field by field.
AGCGTCAC
  PBM E-score = -0.0819
GGGGTCAC
  PBM E-score = -0.0806

Remaining list, next part:

Sequence	PBM E-score
CCGGCTCA	0.0861
ATGCCGAG	0.0212
ATTACGCC	-0.0353
ACTGAGAC	-0.0859
ATGGCTTC	-0.0329
CTGCGAGC	0.188
TCGGTTAA	0.113
CGGGTGGA	0.084
AAATATCC	0.0814
ACGCCGAC	0.0112
ATCTGTCA	0.168
AACCGAAT	0.124
GCAAGTAA	0.183
CTCGATTC	0.15
ATCTTCAG	0.112
GTGTGGCA	-0.0247
ATTTCCGG	0.148
AAATTGGT	0.268
GCAGGCTA	-0.2
ACGTGGGC	-0.163
CTGCCGGA	-0.0384
CACCTTGG	0.0655
GATCCGAA	0.243
AGAGGTAA	-0.0181
TATGATCA	0.144

Sequence	PBM E-score
AGGGAAAC	-0.152
ATGGAACA	0.0876
CACTAAAA	0.256
CGTTAAAC	0.0981
CCCTTAGC	0.0218
AGGATCTA	-0.158
ATTACGGA	0.14
GGAAAAGA	0.00843
GGCCGCAC	-0.00372
AATCCCGT	0.174
TCGTAACA	-0.00934
GATGTAAA	0.135
GCCGCGCA	-0.0674
ACTCAGGA	-0.067
AAAACGTG	-0.0923
GCGGTAAC	0.0493
AAGATCGG	-0.0603
CTCCTTGC	-0.0485
GGCCGAAA	0.143
AACGAAGA	-0.0549
AAACGGTC	-0.0692
CCTATGGC	-0.138
AGAATGGG	-0.127
GGCAGTGA	-0.145
GCGTACGC	-0.271

Sequence	PBM E-score
ACTTTCGA	0.0969
AAAAGTTA	0.0506
AATCGGCA	0.143
CAAAAGAG	0.0252
CTCACTGA	-0.0153
GGGCAGAC	-0.106
CACCGGCC	-0.298
CGATGGAC	0.0147
AATTCAAC	0.256
ACTATCCG	0.163
GACTACGC	-0.187
CTCCGGAA	-0.0511
ATATTTGG	0.0811
CCTACAGG	-0.279
CCAGCCCG	-0.185
TCTTTCCA	0.0837
AAAGGTAA	-0.0854
ATAACAAG	0.222
CCAACGGG	0.0593
CGGTATCA	0.0571
AGAACATG	0.136
GACGTCCC	0.06
AGGTCGGA	-0.00885
CATGTATC	0.08
TGCTTAAA	0.0744

Sequence	PBM E-score
GCCCTTCA	-0.107
ATTTACTC	0.271
TAAACCAA	0.00513
AGCGTAAT	0.00358
CGGCTGCC	-0.0998
GATTTAGC	-0.0322
TCCAGTCA	-0.0887
ACGGGCCG	-0.219
AGGATGTG	-0.0732
CTTCGGCC	-0.0613
ATAGACAT	-0.16
GCATGACA	0.0603
GGAGACCC	0.076
GATTGCCA	-0.0708
CTGCGTTA	0.103
AACCAAAT	0.126
ATCCACAG	0.153
ATTATGAG	0.149
AAAGTTGT	0.297
AACGAGGC	-0.139
AGTAGGGG	0.206
AGTCTTCA	-0.0972
GAGCAACC	0.0868
GGCTGTGA	-0.0863
CGAACGGC	-0.0328

Sequence	PBM E-score
ATTGAATA	0.19
ATTAGACG	0.0759
AGTACAAC	-0.00458
CACTAGGG	-0.0793
GGACACAC	0.00494
CGAGCGCG	0.157
ACTCAGGG	0.294
CCTAGTTC	0.172
AAGTATAG	-0.127
CAATGCGG	0.0816
TCTGGGAA	0.00515
AGCTACCT	-0.0273
ACTCGTCG	-0.0102
TATTTTCA	0.121
ATTGCGAG	0.0375
AATCGACA	0.175
ATGTCATA	-0.0397
GCCACCAA	-0.0325
CACACCAA	0.063
